From patent US10640547B2, “Immunotherapy against melanoma and other cancers” (IMMATICS BIOTECHNOLOGIES GMBH, priority 2016, dated 2020)

Test system: HLA molecules of melanoma, other tumor and normal tissue samples
Assay: Identification and relative quantitation of tumor associated peptides presented on the cell surface (HLA immunoprecipitation, label-free LC-MS)
Design: species or system human; key to Peptide Presentation (presentation score): very highly over-presented on tumors compared to a panel of normal tissues (+++); highly over-presented on tumors compared to a panel of normal tissues (++); over-presented on tumors compared to a panel of normal tissues (+)
Conditions: for Peptide Presentation (presentation score): over-presentation on tumors compared to a panel of normal tissues; for relevant organs/diseases (additional tumor types on which the peptide was found) / Additional Entities (additional tumor types on which the peptide was found): over-presented on more than 5% of the measured tumor samples, or presented on more than 5% with ratio of geometric means tumor vs normal tissues larger than 3; for over-presentation in different cancer tissues: HLA-A*02 positive normal and tumor samples, FIG. 1E-1J

Row | Substance | Peptide Presentation (presentation score) | relevant organs/diseases (additional tumor types on which the peptide was found) | over-presentation in different cancer tissues | Additional Entities (additional tumor types on which the peptide was found) | over-presentation in melanoma versus normal tissues (18 melanoma vs panel of normal tissues, FIG. 1A-1C)
1 | 133 (ALDPAYTTL; listed as Homo sapiens) [compound 133] | ++ | HCC, CLL, NHL, AML, Uterine Cancer |  |  | 
2 | SEQ ID NO.: 118 (TMIEICEKL; listed as Homo sapiens) |  |  | over-presentation |  | 
3 | 128 (ALFPGDVDRL; listed as Homo sapiens) [compound 128] |  | Brain Cancer, GC, CRC, PC, PrC, BRCA, Esophageal Cancer, Urinary bladder cancer |  |  | 
4 | 22 (KLLELQELVL; listed as Homo sapiens) [compound 22] | ++ |  |  | HNSCC | 
5 | 207 (VQIGDIVTV; listed as Homo sapiens) [compound 207] | + | GC, AML, BRCA |  | HNSCC | 
6 | 124 (FLPQKIIYL; listed as Homo sapiens) [compound 124] |  | GC, BRCA, OC, Uterine Cancer |  | NHL | 
7 | 231 (KMVGDVTGA; listed as Homo sapiens) [compound 231] | + |  |  |  | 
8 | 163 (RLMANPEALKI; listed as Homo sapiens) [compound 163] | ++ | NHL, OC, Urinary bladder cancer, Uterine Cancer |  | HCC, HNSCC | 
9 | 176 (TLYEQEIEV; listed as Homo sapiens) [compound 176] |  | RCC, Brain Cancer, PC, PrC, NHL |  |  | 
10 | 166 (SIIPPLFTV; listed as Homo sapiens) [compound 166] | ++ | SCLC, PC, AML, BRCA, OC, Urinary bladder cancer |  | HCC | 
11 | 196 (ALEPIDITV; listed as Homo sapiens) [compound 196] | +++ | BRCA |  |  | 
12 | 211 (FLPFLTTEV; listed as Homo sapiens) [compound 211] | + | HCC, CLL, NHL, AML, OC, Uterine Cancer |  | SCLC, HNSCC | 
13 | 215 (EVISKLYAV; listed as Homo sapiens) [compound 215] | + | BRCA, Urinary bladder cancer |  | RCC, GC, HCC | 
14 | 227 (FLLEQEKTQAL; listed as Homo sapiens) [compound 227] | + | PrC, CLL, NHL, BRCA, Esophageal Cancer, OC |  | HNSCC | 
15 | 86 (HTLPHEIVVNL; listed as Homo sapiens) [compound 86] | +++ |  |  |  | 
16 | 51 (LIDKIIEYL; listed as Homo sapiens) [compound 51] | +++ |  |  |  | 
17 | 150 (KLFPSPLQTL; listed as Homo sapiens) [compound 150] |  | SCLC, RCC, PrC, Gallbladder Cancer, Bile Duct Cancer |  | Urinary bladder cancer | 
18 | 200 (LLEEINHFL; listed as Homo sapiens) [compound 200] | +++ |  |  |  | 
19 | 233 (QLYNQIIKL; listed as Homo sapiens) [compound 233] | + | CLL, NHL |  |  | 
20 | 93 (LLAKAVQNV; listed as Homo sapiens) [compound 93] | +++ |  |  |  | 

Row | Substance | Peptide Presentation (presentation score) | relevant organs/diseases (additional tumor types on which the peptide was found) | over-presentation in different cancer tissues | Additional Entities (additional tumor types on which the peptide was found) | over-presentation in melanoma versus normal tissues (18 melanoma vs panel of normal tissues, FIG. 1A-1C)
21 | 31 (FLPRKFPSL; listed as Homo sapiens) [compound 31] | ++ | NSCLC, CRC, CLL, NHL, Esophageal Cancer, OC, Urinary bladder cancer, Uterine Cancer |  | HNSCC | 
22 | 84 (GLDTILQNL; listed as Homo sapiens) [compound 84] | +++ |  |  | GC, AML | 
23 | 78 (ALKDLVNLI; listed as Homo sapiens) [compound 78] | +++ |  |  | HCC | 
24 | 172 (FLPAGIVAV; listed as Homo sapiens) [compound 172] | ++ | CLL, NHL, AML, Urinary bladder cancer, Uterine Cancer |  |  | 
25 | 35 (ALFAAGANV; listed as Homo sapiens) [compound 35] | +++ |  |  |  | 
26 | 139 (AVDATVNQV; listed as Homo sapiens) [compound 139] | + | CLL, Uterine Cancer |  |  | 
27 | SEQ ID NO.: 209 (SILDGLIHL; listed as Homo sapiens) |  |  | over-presentation |  | 
28 | 173 (ALDDIIYRA; listed as Homo sapiens) [compound 173] | + | CLL, NHL |  | HNSCC | 
29 | 193 (ALDEPTTNL; listed as Homo sapiens) [compound 193] | ++ | AML, Urinary bladder cancer, Gallbladder Cancer, Bile Duct Cancer |  | CRC, CLL, NHL | 
30 | 75 (FMYAGQLTL; listed as Homo sapiens) [compound 75] | +++ |  |  |  | 
31 | 60 (ILPEAQDYFL; listed as Homo sapiens) [compound 60] | +++ |  |  |  | 
32 | SEQ ID NO.: 13 (IQSETTVTV; listed as Homo sapiens) |  |  |  |  | over-presentation
33 | 216 (TLLHFLAEL; listed as Homo sapiens) [compound 216] | ++ | CLL, NHL |  |  | 
34 | 43 (LLPDPLYSL; listed as Homo sapiens) [compound 43] | +++ |  |  |  | 
35 | 10 (KMTQYITEL; listed as Homo sapiens) [compound 10] | +++ | Brain Cancer |  |  | 
36 | SEQ ID NO.: 24 (SLVAILHLL; listed as Homo sapiens) |  |  | over-presentation |  | 
37 | 229 (LLEPFVHQV; listed as Homo sapiens) [compound 229] | ++ | CLL, NHL, Urinary bladder cancer, Uterine Cancer |  |  | 
38 | 21 (FMYNFQLVTL; listed as Homo sapiens) [compound 21] | ++ | SCLC, Urinary bladder cancer |  |  | 
39 | 171 (KVSGVILSV; listed as Homo sapiens) [compound 171] | ++ | NHL, AML, BRCA |  |  | 
